# Laboratory results taken from US9644010B2 (ONCOTHERAPY SCIENCE, INC., priority 2012, dated 2017).
# Where a sequence shows no end group, the ends are not given.
# Test: peptide made by a vendor
# Conditions: whole synthesis
sequence,measurement,value
RYCNLEGPPI,purity (crude or final not stated),purity>95%
